Experimental data reported in article PMC13344282.
These are yes or no findings as the source states them, for the method shown. In cells and extracts the contact can be indirect. Some binding calls cover weakened binding; strength is not graded here.

Chains of the proteins cited; added tags and fusions are not shown.
UniProt P08047: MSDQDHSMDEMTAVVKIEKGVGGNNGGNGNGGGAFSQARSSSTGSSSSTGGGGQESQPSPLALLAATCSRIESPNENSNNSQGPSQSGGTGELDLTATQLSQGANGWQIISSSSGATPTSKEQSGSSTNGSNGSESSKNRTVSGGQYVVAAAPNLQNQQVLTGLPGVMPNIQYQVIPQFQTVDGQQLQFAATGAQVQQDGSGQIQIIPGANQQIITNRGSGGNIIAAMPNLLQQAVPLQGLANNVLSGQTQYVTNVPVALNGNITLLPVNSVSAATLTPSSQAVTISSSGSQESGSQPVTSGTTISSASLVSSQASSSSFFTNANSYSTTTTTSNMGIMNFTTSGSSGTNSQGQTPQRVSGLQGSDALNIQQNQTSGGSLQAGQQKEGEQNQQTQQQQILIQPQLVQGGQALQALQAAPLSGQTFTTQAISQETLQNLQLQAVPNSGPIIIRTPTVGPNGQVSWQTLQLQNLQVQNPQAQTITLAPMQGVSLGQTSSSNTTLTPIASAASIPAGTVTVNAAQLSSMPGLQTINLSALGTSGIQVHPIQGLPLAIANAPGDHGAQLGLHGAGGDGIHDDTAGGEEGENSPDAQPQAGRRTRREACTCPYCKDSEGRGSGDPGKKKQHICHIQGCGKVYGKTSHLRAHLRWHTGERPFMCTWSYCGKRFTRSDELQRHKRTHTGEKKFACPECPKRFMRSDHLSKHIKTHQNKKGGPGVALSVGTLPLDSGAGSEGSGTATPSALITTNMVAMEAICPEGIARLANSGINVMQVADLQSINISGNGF
UniProt P57682: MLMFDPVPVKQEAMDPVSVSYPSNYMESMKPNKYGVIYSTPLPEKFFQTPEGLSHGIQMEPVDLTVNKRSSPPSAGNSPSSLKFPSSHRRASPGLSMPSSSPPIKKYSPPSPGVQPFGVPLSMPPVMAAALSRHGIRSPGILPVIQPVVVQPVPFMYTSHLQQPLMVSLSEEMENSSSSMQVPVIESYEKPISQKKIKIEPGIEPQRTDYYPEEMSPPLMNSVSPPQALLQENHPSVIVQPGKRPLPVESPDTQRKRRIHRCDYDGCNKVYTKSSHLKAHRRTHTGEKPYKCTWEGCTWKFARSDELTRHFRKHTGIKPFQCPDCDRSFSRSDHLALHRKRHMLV

T1: SYCP1 (synaptonemal complex protein 1), endogenous in MCF7 cells (human (endogenous in MCF7)) (UniProt Q15431)
T1 sequence: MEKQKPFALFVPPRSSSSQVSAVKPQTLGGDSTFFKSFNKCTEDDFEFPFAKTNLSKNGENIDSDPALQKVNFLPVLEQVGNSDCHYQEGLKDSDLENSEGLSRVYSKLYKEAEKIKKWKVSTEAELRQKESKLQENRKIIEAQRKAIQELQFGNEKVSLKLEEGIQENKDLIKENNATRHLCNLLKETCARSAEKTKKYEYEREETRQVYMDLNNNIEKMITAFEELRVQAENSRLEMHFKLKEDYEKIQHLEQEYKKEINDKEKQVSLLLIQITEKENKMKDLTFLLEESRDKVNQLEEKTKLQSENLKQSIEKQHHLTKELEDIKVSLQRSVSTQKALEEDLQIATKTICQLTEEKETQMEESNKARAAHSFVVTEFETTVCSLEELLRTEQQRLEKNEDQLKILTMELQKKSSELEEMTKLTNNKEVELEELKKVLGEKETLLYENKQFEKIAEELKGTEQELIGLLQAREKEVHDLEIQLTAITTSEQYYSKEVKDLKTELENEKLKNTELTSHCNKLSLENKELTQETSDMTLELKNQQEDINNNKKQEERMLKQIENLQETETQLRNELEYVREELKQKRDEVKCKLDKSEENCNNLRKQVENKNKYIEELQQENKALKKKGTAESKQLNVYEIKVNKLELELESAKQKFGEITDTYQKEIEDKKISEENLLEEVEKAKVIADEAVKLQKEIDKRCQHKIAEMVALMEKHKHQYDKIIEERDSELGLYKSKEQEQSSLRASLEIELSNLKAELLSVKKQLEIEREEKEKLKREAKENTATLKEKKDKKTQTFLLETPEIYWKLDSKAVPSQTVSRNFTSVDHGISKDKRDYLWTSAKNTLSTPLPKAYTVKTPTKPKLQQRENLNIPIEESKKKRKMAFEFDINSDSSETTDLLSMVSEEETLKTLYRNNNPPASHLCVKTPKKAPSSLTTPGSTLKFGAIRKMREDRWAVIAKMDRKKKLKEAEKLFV


Biological target: T1, SYCP1 (synaptonemal complex protein 1), endogenous in MCF7 cells (human (endogenous in MCF7))
Assay: co-IP; endogenous SYCP1 precipitated from MCF7 lysate with anti-SYCP1 (Abcam, 15090) and protein G sepharose, overnight at 4°C; washes with PBS, 0.2% Triton X-100, 350 mM NaCl and PBS, 0.2% Triton X-100; Western blot for the transcription factors

binding	Molecule
binds	SP1 (from UniProt P08047 1-785)
no binding	KLF3 (from UniProt P57682 1-345)
no binding	NFX1 (protein, UniProt Q12986 1-1120) MAEAPPVSGTFKFNTDAAEFIPQEKKNSGLNCGTQRRLDSNRIGRRNYSSPPPCHLSRQVPYDEISAVHQHSYHPSGSKPKSQQTSFQSSPCNKSPKSHGLQNQPWQKLRNEKHHIRVKKAQSLAEQTSDTAGLESSTRSESGTDLREHSPSESEKEVVGADPRGAKPKKATQFVYSYGRGPKVKGKLKCEWSNRTTPKPEDAGPESTKPVGVFHPDSSEASSRKGVLDGYGARRNEQRRYPQKRPPWEVEGARPRPGRNPPKQEGHRHTNAGHRNNMGPIPKDDLNERPAKSTCDSENLAVINKSSRRVDQEKCTVRRQDPQVVSPFSRGKQNHVLKNVETHTGSLIEQLTTEKYECMVCCELVRVTAPVWSCQSCYHVFHLNCIKKWARSPASQADGQSGWRCPACQNVSAHVPNTYTCFCGKVKNPEWSRNEIPHSCGEVCRKKQPGQDCPHSCNLLCHPGPCPPCPAFMTKTCECGRTRHTVRCGQAVSVHCSNPCENILNCGQHQCAELCHGGQCQPCQIILNQVCYCGSTSRDVLCGTDVGKSDGFGDFSCLKICGKDLKCGNHTCSQVCHPQPCQQCPRLPQLVRCCPCGQTPLSQLLELGSSSRKTCMDPVPSCGKVCGKPLPCGSLDFIHTCEKLCHEGDCGPCSRTSVISCRCSFRTKELPCTSLKSEDATFMCDKRCNKKRLCGRHKCNEICCVDKEHKCPLICGRKLRCGLHRCEEPCHRGNCQTCWQASFDELTCHCGASVIYPPVPCGTRPPECTQTCARVHECDHPVYHSCHSEEKCPPCTFLTQKWCMGKHEFRSNIPCHLVDISCGLPCSATLPCGMHKCQRLCHKGECLVDEPCKQPCTTPRADCGHPCMAPCHTSSPCPVTACKAKVELQCECGRRKEMVICSEASSTYQRIAAISMASKITDMQLGGSVEISKLITKKEVHQARLECDEECSALERKKRLAEAFHISEDSDPFNIRSSGSKFSDSLKEDARKDLKFVSDVEKEMETLVEAVNKGKNSKKSHSFPPMNRDHRRIIHDLAQVYGLESVSYDSEPKRNVVVTAIRGKSVCPPTTLTGVLEREMQARPPPPIPHHRHQSDKNPGSSNLQKITKEPIIDYFDVQD
